From the supplement of paper PMC10849652
Some of the results follow. Residues, ends and D or L forms follow the SMILES beside them. *: point of attachment. Cbz = O=C(OCc1ccccc1)*

Sequences of proteins named here, by UniProt entry; tags and fusion partners are left off. A change or cut given only in a name is not applied to a line headed by its entry.
UniProt O96017, whole entry, looked up: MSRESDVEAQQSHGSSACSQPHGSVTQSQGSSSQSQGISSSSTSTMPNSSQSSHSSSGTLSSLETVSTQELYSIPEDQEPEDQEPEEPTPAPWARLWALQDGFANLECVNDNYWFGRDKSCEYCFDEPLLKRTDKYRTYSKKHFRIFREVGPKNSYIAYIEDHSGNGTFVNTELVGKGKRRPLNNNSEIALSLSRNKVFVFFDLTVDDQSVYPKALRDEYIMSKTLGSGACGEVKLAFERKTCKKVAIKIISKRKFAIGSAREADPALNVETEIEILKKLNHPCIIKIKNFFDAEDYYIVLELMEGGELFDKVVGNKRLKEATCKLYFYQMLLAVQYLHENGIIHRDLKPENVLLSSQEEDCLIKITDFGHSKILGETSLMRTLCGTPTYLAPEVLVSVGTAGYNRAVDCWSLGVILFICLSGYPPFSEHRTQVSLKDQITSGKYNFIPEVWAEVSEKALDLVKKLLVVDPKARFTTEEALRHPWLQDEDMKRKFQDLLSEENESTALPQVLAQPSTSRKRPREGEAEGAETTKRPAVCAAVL
UniProt Q8WYQ3: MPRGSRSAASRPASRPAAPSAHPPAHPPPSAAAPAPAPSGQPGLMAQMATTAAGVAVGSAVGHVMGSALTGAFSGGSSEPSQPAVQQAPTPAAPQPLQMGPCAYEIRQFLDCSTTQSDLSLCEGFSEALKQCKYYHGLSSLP
UniProt Q6ZMG9: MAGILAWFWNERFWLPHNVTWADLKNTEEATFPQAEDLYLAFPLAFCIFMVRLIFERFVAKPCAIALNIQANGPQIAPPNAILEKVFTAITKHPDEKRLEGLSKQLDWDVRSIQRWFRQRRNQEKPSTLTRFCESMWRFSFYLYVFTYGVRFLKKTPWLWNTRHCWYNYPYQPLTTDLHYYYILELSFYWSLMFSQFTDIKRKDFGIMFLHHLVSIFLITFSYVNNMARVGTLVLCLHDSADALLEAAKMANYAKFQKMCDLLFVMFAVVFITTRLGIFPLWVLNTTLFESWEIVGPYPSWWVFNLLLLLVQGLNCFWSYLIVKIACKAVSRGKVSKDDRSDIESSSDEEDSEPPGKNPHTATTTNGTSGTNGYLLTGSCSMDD
UniProt O14613: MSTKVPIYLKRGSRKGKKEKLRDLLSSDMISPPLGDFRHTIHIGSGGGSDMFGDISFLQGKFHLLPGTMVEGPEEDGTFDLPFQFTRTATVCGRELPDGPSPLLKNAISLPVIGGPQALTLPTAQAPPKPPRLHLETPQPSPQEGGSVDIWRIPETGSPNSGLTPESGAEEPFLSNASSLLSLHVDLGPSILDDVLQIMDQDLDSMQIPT
UniProt Q5VXU3: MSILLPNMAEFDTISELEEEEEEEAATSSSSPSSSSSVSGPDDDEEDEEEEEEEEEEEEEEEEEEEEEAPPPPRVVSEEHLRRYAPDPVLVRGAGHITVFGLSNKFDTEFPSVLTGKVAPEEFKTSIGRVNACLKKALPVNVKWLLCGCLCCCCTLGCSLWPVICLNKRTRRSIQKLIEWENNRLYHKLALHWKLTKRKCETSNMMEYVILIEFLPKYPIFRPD
UniProt Q69YH5: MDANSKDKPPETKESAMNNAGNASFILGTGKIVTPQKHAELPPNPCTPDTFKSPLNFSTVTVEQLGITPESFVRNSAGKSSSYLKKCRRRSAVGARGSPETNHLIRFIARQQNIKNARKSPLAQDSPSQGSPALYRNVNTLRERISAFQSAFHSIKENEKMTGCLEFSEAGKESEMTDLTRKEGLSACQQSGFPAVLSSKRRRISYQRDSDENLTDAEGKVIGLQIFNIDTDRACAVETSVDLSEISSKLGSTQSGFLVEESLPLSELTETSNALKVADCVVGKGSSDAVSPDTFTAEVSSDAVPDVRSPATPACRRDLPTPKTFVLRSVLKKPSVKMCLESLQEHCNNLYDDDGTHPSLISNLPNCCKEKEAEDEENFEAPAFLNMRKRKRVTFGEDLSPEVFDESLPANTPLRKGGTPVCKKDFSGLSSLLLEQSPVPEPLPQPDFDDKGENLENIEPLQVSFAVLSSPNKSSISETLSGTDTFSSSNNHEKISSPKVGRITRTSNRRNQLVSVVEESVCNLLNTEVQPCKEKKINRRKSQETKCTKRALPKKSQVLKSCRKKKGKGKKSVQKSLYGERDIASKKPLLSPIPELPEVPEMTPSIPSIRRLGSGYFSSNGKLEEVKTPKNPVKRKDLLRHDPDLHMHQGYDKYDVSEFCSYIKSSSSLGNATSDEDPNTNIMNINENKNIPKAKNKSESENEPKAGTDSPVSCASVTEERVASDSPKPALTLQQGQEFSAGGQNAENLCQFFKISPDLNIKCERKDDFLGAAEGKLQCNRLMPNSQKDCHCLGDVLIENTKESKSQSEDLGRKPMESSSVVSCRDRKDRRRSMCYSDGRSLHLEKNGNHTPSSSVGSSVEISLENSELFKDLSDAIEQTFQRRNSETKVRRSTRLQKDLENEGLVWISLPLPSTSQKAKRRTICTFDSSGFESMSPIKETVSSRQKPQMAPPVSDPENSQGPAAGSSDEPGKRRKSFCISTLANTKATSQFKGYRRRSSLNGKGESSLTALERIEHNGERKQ
UniProt Q00537: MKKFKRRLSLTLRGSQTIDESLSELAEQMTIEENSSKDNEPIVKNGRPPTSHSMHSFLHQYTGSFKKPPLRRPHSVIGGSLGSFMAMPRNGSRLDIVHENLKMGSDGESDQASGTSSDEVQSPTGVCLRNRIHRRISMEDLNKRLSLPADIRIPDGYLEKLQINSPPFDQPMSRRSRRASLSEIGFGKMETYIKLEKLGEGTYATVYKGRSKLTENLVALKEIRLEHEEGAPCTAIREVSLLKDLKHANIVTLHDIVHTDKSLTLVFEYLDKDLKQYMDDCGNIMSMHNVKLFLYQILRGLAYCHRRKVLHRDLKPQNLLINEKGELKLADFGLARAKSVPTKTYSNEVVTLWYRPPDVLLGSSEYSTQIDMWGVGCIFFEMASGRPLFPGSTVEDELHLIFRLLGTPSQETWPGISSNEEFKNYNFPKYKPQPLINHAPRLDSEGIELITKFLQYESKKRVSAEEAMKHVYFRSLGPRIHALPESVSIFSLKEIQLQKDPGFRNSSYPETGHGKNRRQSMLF
UniProt Q9BWU1: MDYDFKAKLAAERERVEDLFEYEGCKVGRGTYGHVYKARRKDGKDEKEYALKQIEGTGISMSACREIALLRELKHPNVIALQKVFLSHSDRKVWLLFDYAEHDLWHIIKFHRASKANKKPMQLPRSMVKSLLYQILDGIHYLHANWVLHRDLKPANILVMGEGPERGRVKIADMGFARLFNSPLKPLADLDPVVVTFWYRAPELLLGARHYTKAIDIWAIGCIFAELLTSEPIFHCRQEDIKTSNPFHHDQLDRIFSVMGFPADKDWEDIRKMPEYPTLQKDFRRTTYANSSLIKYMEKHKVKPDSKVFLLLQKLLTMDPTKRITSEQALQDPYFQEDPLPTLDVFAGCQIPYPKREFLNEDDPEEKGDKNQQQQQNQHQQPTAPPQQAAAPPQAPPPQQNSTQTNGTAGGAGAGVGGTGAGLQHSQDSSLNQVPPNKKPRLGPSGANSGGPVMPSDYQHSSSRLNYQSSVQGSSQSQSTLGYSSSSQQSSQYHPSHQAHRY
UniProt P24386: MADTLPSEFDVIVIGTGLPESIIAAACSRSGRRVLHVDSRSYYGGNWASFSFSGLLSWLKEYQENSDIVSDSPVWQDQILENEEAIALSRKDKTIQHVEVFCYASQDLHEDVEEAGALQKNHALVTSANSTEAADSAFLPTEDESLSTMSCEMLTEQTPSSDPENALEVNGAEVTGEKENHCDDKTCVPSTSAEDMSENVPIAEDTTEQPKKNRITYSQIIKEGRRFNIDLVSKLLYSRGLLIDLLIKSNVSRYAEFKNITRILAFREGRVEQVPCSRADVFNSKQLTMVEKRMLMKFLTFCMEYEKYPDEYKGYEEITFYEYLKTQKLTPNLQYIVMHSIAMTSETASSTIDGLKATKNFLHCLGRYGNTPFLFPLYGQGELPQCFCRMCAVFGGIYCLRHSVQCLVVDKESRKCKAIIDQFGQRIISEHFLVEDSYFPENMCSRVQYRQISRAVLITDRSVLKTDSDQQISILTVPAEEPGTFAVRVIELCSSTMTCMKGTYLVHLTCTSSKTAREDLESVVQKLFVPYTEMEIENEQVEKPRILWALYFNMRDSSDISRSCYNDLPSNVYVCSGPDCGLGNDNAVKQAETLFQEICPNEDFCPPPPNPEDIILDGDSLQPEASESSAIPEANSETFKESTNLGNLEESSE
UniProt Q6IPU0: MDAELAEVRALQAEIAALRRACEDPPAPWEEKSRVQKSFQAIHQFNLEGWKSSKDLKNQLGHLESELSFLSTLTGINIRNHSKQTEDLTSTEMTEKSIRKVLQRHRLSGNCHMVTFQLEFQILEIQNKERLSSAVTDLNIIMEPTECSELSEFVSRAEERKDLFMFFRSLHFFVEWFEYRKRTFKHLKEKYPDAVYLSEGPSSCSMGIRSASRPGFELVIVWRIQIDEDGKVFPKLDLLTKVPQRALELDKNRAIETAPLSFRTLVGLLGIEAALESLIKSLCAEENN
UniProt Q86XR8: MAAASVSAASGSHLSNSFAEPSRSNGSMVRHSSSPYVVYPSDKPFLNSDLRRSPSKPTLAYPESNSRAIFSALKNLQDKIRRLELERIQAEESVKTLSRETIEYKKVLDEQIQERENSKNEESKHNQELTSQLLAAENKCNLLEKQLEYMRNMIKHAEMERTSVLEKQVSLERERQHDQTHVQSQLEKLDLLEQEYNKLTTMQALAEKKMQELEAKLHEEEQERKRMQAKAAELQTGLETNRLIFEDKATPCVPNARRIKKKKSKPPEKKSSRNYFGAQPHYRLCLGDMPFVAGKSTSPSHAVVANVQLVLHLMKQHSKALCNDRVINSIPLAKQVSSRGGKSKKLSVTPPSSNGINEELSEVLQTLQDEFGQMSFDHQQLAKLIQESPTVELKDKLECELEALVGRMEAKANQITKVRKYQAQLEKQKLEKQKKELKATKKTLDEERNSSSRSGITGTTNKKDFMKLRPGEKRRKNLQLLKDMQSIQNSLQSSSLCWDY
UniProt Q9BS16: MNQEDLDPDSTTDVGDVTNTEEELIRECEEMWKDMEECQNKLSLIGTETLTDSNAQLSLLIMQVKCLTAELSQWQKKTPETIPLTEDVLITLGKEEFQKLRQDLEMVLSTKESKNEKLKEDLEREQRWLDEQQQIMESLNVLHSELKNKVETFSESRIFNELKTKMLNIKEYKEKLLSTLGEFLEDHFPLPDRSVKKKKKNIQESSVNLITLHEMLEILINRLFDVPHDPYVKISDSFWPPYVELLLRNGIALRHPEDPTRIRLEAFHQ
UniProt Q66GS9: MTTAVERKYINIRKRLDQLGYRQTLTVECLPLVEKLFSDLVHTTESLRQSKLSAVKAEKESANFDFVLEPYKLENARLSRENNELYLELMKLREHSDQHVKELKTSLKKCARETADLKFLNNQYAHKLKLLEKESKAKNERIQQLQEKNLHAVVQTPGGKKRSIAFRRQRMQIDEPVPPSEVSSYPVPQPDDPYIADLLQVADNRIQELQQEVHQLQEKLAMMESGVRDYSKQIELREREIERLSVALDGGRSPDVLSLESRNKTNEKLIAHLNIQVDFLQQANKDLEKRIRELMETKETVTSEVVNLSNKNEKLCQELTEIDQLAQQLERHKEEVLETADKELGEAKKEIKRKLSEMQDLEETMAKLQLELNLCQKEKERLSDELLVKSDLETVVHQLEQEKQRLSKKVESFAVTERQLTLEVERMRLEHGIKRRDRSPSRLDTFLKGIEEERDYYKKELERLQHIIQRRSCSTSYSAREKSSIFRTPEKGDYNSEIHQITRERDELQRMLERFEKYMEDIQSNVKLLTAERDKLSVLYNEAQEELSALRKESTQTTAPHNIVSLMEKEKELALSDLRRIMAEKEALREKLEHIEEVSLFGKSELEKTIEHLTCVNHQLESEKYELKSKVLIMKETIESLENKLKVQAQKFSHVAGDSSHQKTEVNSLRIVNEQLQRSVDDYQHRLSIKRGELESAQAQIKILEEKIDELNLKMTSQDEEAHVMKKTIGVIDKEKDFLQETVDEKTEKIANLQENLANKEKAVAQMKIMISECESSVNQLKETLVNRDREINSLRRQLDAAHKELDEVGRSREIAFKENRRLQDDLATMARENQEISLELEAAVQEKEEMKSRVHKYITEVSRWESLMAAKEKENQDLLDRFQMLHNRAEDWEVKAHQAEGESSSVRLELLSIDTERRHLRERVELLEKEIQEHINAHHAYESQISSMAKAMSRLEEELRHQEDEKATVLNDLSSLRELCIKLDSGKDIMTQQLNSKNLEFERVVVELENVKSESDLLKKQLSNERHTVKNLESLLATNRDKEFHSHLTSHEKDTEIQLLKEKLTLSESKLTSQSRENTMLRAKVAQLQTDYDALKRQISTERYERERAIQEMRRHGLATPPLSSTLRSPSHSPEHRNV

How the values were obtained:
Assay in all cases: log2 fold change, soluble protein after heating vs DMSO (PISA); higher = thermal stabilisation; K562 cells, 10 uM, 30 min; active = over 0.2 and 3.5 SD of the protein, either way, in both replicates (recomputed)
[1] = compound: C#Cc1cccc(Nc2ncnc3cc(OCCOC)c(OCCOC)cc23)c1 [erlotinib]
Procedure, shortened: (§1)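 Aliquots of K562 cells (2×10^6 cells/mL) treated with 10 μM compound for 30 min were heated for 3 min over 48°C-58°C. After pooling and extraction in PBS with 0.5% NP-40 at 4°C, soluble protein from a 21,000xg, 90 min spin was quantified by TMTpro 16plex LC-MS/MS with channel sums equalised. Thermal stability is expressed against control samples, from duplicates, as a log2 fold change.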

[2] = compound: C/C(=N\NC(=O)C1=CC(=CC=C1)S(=O)(=O)N2CCOCC2)/C3=C(C=CC(=C3)Cl)O
Procedure, shortened: as §1

[3] = compound: C1=CC(=CC=C1C2=NC3=C(N2)C=C(C=C3)C(=O)N)OC4=CC=C(C=C4)Cl
Procedure, shortened: as §1

[4] = compound: C1=CC2=C(C=CC(=C2)/C=C\3/C(=O)NC(=NCC4=CC=CS4)S3)N=C1
Procedure, shortened: as §1

[5] = compound: C1=CC=C(C=C1)C2=NC(=C(N2)C3=CC=NC=C3)C4=CC(=C(C=C4)Cl)O
Procedure, shortened: as §1

[6] = compound: C1=CC=C2C(=C1)C3=NNC4=CC=CC(=C43)C2=O
Procedure, shortened: as §1

[7] = compound: C1CCN(C1)C(=O)NC2=CC=CC(=C2)NC3=NC=C(C(=N3)NCCC4=CN=CN4)Br
Procedure, shortened: as §1

[8] = compound: C1CN(CCC1(CC2=CC=C(C=C2)Cl)N)C3=NC=NC4=C3C=CN4
Procedure, shortened: as §1

[9] = compound: CC(=O)c1cnc2ccc(-c3cc(Cl)c(O)c(Cl)c3)nc2c1N[C@H]1CC[C@H](CN(C)C)CC1
Procedure, shortened: as §1

[10] = compound: CC(C)(C)Cn1c(N)nc2ccc(-c3[nH]c(C(C)(C)C)nc3-c3ccc(F)cc3)nc21 [ralimetinib]
Procedure, shortened: as §1

[11] = compound: CC(C)C1=C2N=C(C=C(N2N=C1)NCC3=CC=CC=C3)NCCCCCCN
Procedure, shortened: as §1

[12] = compound: CC(C)C[C@@H](C=O)NC(=O)[C@H](CC(C)C)NC(=O)[C@H](CC(C)C)NC(=O)OCc1ccccc1
Procedure, shortened: as §1

[13] = compound: CC1=C(C2=C(C=C1)C(=O)C3=CC=CC=C3N2CCCN)C
Procedure, shortened: as §1

[14] = compound: C1=CC(=C(C=C1Cl)C2=NC3=NC=CN=C3C(=N2)NC4=CC=NC=C4)F
Procedure, shortened: as §1

[15] = compound: C1=CC2=NC=CN=C2C=C1/C=C/3\C(=O)NC(=O)S3
Procedure, shortened: as §1

[16] = compound: C1COCCN1CCN2C3=CC=CC=C3N=C2NC(=O)C4=CC(=CC=C4)[N+](=O)[O-] [IRAK-1-4 Inhibitor I]
Procedure, shortened: as §1

[17] = compound: C=CC(=O)N1CCC[C@@H](n2nc(-c3ccc(Oc4ccccc4)cc3)c3c(N)ncnc32)C1 [ibrutinib]
Procedure, shortened: as §1

[18] = compound: CC(C)(O)CC(=O)NCCn1ccc2ncnc(Nc3ccc(Oc4cccc(C(F)(F)F)c4)c(Cl)c3)c21
Procedure, shortened: as §1

[19] = compound: CC(C)N(C[C@H]1O[C@@H](n2cnc3c(N)ncnc32)[C@H](O)[C@@H]1O)[C@H]1C[C@@H](CCc2nc3cc(C(C)(C)C)ccc3[nH]2)C1 [pinometostat]
Procedure, shortened: as §1

[20] = compound: CC1=C(C(CC(=O)N1)C2=CC=C(C=C2)C(F)(F)F)C(=O)NC3=C(C=C4C(=C3)C=NN4)F
Procedure, shortened: as §1

Target	log2 fold change [1]	log2 fold change [2]	log2 fold change [3]	log2 fold change [4]	log2 fold change [5]	log2 fold change [6]	log2 fold change [7]	log2 fold change [8]	log2 fold change [9]	log2 fold change [10]	log2 fold change [11]	log2 fold change [12]	log2 fold change [13]	log2 fold change [14]	log2 fold change [15]	log2 fold change [16]	log2 fold change [17]	log2 fold change [18]	log2 fold change [19]	log2 fold change [20]
CEND1 (UniProt Q8N111)	inactive: -0.01	inactive: -0.162	inactive: 0.289	inactive: -0.039	inactive: -0.013	inactive: 0.176	inactive: -0.101	inactive: -0.017	inactive: -0.169	inactive: 0.102	inactive: 0.051	inactive: -0.181	inactive: 0.17	–	–	–	–	–	–	–
CHEK2 isoform 9 (UniProt O96017)	inactive: -0.041	inactive: 0.117	–	inactive: -0.006	inactive: 0.04	inactive: 0.079	inactive: -0.027	inactive: 0.107	inactive: -0.113	inactive: 0.029	inactive: -0.007	inactive: -0.051	inactive: 0.022	inactive: 0.093	inactive: 0.032	inactive: 0.043	inactive: -0.019	inactive: -0.014	inactive: 0.014	inactive: 0.026
CHCHD10 (UniProt Q8WYQ3)	inactive: -0.151	–	inactive: -0.087	–	inactive: 0.19	–	–	–	–	inactive: -0.13	inactive: 0.047	inactive: -0.217	–	inactive: -0.033	inactive: 0.05	inactive: -0.245	inactive: 0.017	inactive: -0.081	inactive: -0.094	inactive: 0.037
CERS6 isoform 2 (UniProt Q6ZMG9)	inactive: -0.018	inactive: 0.042	inactive: 0.015	inactive: 0.039	–	inactive: -0.075	inactive: 0.019	inactive: 0.029	inactive: -0.055	–	inactive: -0.079	–	inactive: -0.015	inactive: -0.03	inactive: 0.011	–	inactive: 0.003	inactive: -0.043	–	inactive: -0.02
CDC42EP2 (UniProt O14613)	inactive: 0.192	–	inactive: 0.082	–	–	–	inactive: 0.028	inactive: 0.084	–	–	inactive: -0.139	–	inactive: -0.187	inactive: -0.147	inactive: 0.008	–	inactive: 0.158	inactive: -0.141	–	–
CDC5L (UniProt Q99459)	inactive: -0.048	inactive: -0.015	inactive: 0.026	inactive: -0.064	inactive: 0.01	inactive: 0.003	inactive: 0.05	inactive: 0.155	inactive: -0.139	inactive: 0.01	inactive: 0.387	inactive: 0.196	inactive: -0.272	–	–	inactive: -0.175	–	–	inactive: 0.145	–
CHIC1 (UniProt Q5VXU3)	inactive: -0.047	inactive: -0.062	inactive: -0.018	inactive: 0.339	inactive: -0.088	inactive: 0.017	inactive: 0.09	inactive: 0.019	inactive: 0.011	inactive: -0.104	inactive: -0.04	inactive: 0.236	inactive: 0.036	inactive: -0.277	inactive: 0.175	–	inactive: -0.152	inactive: 0.049	–	inactive: -0.008
CDCA2 (UniProt Q69YH5)	active: 0.519	inactive: -0.46	inactive: -0.333	inactive: 0.048	inactive: -0.002	inactive: -0.033	inactive: -0.082	inactive: 0.256	inactive: 0.011	inactive: 0.081	inactive: -0.009	inactive: 0.188	inactive: -0.003	inactive: 0.043	–	inactive: 0.023	–	inactive: -0.138	inactive: -0.008	–
CDR2L (UniProt Q86X02)	inactive: 0.072	inactive: 0.068	inactive: -0.044	inactive: 0.055	inactive: 0.008	inactive: -0.079	inactive: -0.173	inactive: -0.145	inactive: -0.345	inactive: 0.015	inactive: -0.257	inactive: 0.106	inactive: -0.005	–	–	–	–	–	–	–
CDK17 isoform 2 (UniProt Q00537)	inactive: 0.086	inactive: 0.008	inactive: -0.075	inactive: -0.123	–	inactive: 0.064	–	–	inactive: 0.258	–	inactive: 0.078	–	–	inactive: 0.059	inactive: -0.081	inactive: 0.101	inactive: 0.003	inactive: -0.069	inactive: 0.037	–
CDK19 (UniProt Q9BWU1)	inactive: -0.2	inactive: -0.116	inactive: 0.268	inactive: 0.111	inactive: -0.167	inactive: 0.099	inactive: 0.003	inactive: 0.021	active: 0.541	inactive: -0.133	inactive: 0.222	inactive: 0.074	inactive: 0.119	inactive: 0.053	–	–	–	inactive: -0.02	–	–
CHM (UniProt P24386)	inactive: 0.045	inactive: 0.052	inactive: 0.023	inactive: -0.161	inactive: -0.074	inactive: -0.153	inactive: 0.006	inactive: 0.023	inactive: 0.001	inactive: 0.016	inactive: 0.098	inactive: -0.128	inactive: 0.136	inactive: -0.013	–	inactive: -0.045	–	inactive: 0.053	inactive: -0.083	–
CENPP (UniProt Q6IPU0)	inactive: 0.019	–	inactive: -0.039	–	inactive: 0.028	–	inactive: 0.188	inactive: 0.026	–	inactive: 0.038	inactive: -0.026	inactive: 0.052	inactive: -0.083	inactive: -0.086	inactive: -0.069	inactive: -0.071	inactive: 0.111	inactive: -0.077	inactive: -0.014	inactive: 0
CEP57 (UniProt Q86XR8)	–	–	–	–	–	–	–	–	–	–	–	–	–	–	–	–	–	–	–	inactive: 0.114
CHD8 (UniProt Q9HCK8)	–	–	–	–	inactive: 0	–	–	–	–	inactive: -0.063	–	inactive: 0.012	–	inactive: 0.069	inactive: 0.12	–	inactive: -0.095	inactive: -0.037	–	–
CENPK (UniProt Q9BS16)	inactive: 0.116	–	inactive: 0.026	–	–	–	–	–	–	–	inactive: -0.268	–	–	–	inactive: -0.079	inactive: 0.164	inactive: -0.1	–	inactive: -0.292	inactive: -0.014
CEP135 (UniProt Q66GS9)	–	inactive: 0.04	–	inactive: -0.205	–	inactive: 0.113	–	–	inactive: -0.085	–	–	–	–	inactive: -0.038	inactive: 0.097	inactive: 0.175	inactive: 0.198	inactive: 0.02	inactive: -0.01	–

Record cards, as listed above. Values in the order: log2 fold change [1]	log2 fold change [2]	log2 fold change [3]	log2 fold change [4]	log2 fold change [5]	log2 fold change [6]	log2 fold change [7]	log2 fold change [8]	log2 fold change [9]	log2 fold change [10]	log2 fold change [11]	log2 fold change [12]	log2 fold change [13]	log2 fold change [14]	log2 fold change [15]	log2 fold change [16]	log2 fold change [17]	log2 fold change [18]	log2 fold change [19]	log2 fold change [20]
CEP57 (UniProt Q86XR8) is entered as –	–	–	–	–	–	–	–	–	–	–	–	–	–	–	–	–	–	–	inactive: 0.114
CDK19 (UniProt Q9BWU1) is entered as inactive: -0.2	inactive: -0.116	inactive: 0.268	inactive: 0.111	inactive: -0.167	inactive: 0.099	inactive: 0.003	inactive: 0.021	active: 0.541	inactive: -0.133	inactive: 0.222	inactive: 0.074	inactive: 0.119	inactive: 0.053	–	–	–	inactive: -0.02	–	–
